Values quoted from earlier work, collected in US20230128402A1 (The Trustees of Princeton University, priority 2020, published 2023).
Some of these results come from one statement about several compounds together.

Molecular target: T1, ALDH1a3 (Homo sapiens, UniProt P47895)
T1 sequence (P47895 1-512): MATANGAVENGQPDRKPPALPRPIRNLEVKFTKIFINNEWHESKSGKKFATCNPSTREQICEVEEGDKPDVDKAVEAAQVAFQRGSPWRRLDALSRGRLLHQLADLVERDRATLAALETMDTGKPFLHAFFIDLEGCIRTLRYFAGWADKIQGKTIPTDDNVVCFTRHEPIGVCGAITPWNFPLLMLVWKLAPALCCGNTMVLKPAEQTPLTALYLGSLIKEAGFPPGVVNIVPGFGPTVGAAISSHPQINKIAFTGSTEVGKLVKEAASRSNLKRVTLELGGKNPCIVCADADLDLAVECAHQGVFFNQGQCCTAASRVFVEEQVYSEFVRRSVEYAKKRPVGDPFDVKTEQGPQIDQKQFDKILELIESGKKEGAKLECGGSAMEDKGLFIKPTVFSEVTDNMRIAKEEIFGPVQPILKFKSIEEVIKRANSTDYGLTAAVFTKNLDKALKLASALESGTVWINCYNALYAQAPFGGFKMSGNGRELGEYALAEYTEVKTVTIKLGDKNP
Parameters: lentiviral vectors containing either the vector backbone or full-length human Aldh1a3; expressed in transfected cells; host or cells: SUM159-M1a human breast cancer cells, lentiviral pLex vector
Settings: shown in PCT/US2019/044278, ALDEFLUOR assay; cited from earlier work

## 3-ethyl-N-(2-oxo-3,4-dihydro-1H-quinolin-6-yl)pyridine-4-carboxamide [Compound 9]
  inhibition of ALDH1a3: can inhibit ALDH1a3

## CCc1cnccc1C(=O)Nc1cc2c(cc1F)NC(=O)CC2 [Compound 1, 3-ethyl-N-(7-fluoro-2-oxo-3,4-dihydro-1H-quinolin-6-yl)pyridine-4-carboxamide]
  inhibition of ALDH1a3: can inhibit ALDH1a3
